According to PubChem BioAssay AID2551 (National Center for Advancing Translational Sciences (NCATS), 2010):
Among all 310,000 compounds or so, about 17,000 (5.5%) were called active. Inconclusive means that the source gave no clear call. Such entries were picked first, then a sample of the others. The call rests on the fitted dose curve; in most records, active means well fitted inhibition curve with a large enough effect; inconclusive means small, poorly fitted or top-dose-only effect, or effect the other way; inactive means no such curve, though single readings can be large or run the other way. Potencies beside an inconclusive call are fits to weak or partial responses and may not hold up.

Amino acid sequences for entries named in this document (tags omitted). A change or cut given only in a name is not applied to a line headed by its entry.
UniProt P51450: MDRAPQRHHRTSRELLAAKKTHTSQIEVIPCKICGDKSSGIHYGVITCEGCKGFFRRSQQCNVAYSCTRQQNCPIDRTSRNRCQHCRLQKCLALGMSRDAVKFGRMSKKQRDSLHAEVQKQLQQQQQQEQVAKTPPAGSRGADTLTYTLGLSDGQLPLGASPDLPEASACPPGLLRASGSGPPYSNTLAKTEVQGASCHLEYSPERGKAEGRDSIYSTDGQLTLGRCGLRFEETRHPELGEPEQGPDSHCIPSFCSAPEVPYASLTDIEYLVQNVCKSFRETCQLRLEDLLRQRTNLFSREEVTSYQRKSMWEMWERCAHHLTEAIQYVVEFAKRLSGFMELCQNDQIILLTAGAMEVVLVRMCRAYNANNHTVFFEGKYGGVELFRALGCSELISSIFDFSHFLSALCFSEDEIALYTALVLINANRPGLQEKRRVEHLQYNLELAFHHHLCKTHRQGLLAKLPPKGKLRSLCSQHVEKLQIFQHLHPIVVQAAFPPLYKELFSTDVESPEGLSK

target: Nuclear receptor ROR-gamma (Mus musculus) (UniProt P51450); test: qHTS for inhibitors of ROR gamma transcriptional activity; conditions: Drosophila S2 Gal4-RORgamma UAS-luciferase reporter, 20 h; activity change, negative = inhibition: at 53.6 µM (top of the series); further: nearly all actives have a fitted effect of over 60% in size
How it was run: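 Drosophila Schneider cells stably carrying a metallothionein-driven Gal4 DBD–ROR gamma fusion and a UAS-Photinus luciferase reporter were exposed to compound for 1 hr, then induced with copper sulfate (700 uM final) for 20 hr at ambient temperature before luminescence reading.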
On the % scale 0 is the no-effect control and ±100 the full control effect; potency means the concentration at half of the fitted maximal effect.

SMILES	Potency	activity change, negative = inhibition
O=[N+]([O-])c1ccccc1S(=O)(=O)NCCC1=CCCCC1	inconclusive: 14.1 µM [activator, single point]	–
COC(=O)c1ccccc1NC(=O)CSc1nnc(-c2ccc(OC)cc2)n1C	inconclusive: 7.08 µM [activator, partial curve]	–
COc1ccc(CCn2c(N3CCN(C)CC3)nc3c2c(=O)[nH]c(=O)n3C)cc1	inactive	–
CCN(CC)c1nc2c3c(nc4c(c3c1C#N)CC(=O)N4c1ccc(Cl)cc1)NC(C)=N2	inconclusive: 11.2 µM [activator, partial curve]	–
O=C(N/N=C\c1c(O)ccc2ccccc12)c1ccc(Cn2cccn2)o1	active: 2.51 µM	–
CCCOC(=O)c1ccccc1O	inactive	–
CC(=O)OC1CC2C(C)(C)C(=O)[C@@H]3OC3[C@@]2(C)C2CC[C@]3(C)C(=CC(=O)OC3c3ccoc3)[C@]12C (stereo partly drawn)	inactive	–
C=CCn1c(=S)[nH]c2ccc(Br)cc2c1=O	active: 2.82 µM	–
CC1CCN(C(=O)CSCc2ccc(Cl)cc2)CC1	inconclusive: 0.501 µM [activator, full curve, poor fit]	–
COc1cccc(C(C(=O)NC(C)(C)C)N(Cc2ccc(C)cc2)C(=O)CCC(=O)Nc2cc(C)on2)c1OC (stereo not drawn)	inactive	–
CC(C)Oc1ccc2c(=O)cc(-c3ccccc3)oc2c1	inconclusive: 14.1 µM [inhibitor, single point]	–
O=C(NCCCN1CCOCC1)c1cc2c(s1)CCC2	inconclusive: 35.5 µM [activator, single point]	–
O=C(N/N=C/c1sc(=O)n(-c2ccccc2)c1Cl)c1ccncc1	active: 7.08 µM	–
c1ccc(-n2ncc3c2ncn2nc(-c4ccco4)nc32)cc1	inconclusive: 0.199 µM [activator, partial curve]	–
Cc1nc(N[C@@H](Cc2c[nH]c3ccccc23)C(=O)O)c2oc3ccccc3c2n1	inactive	–
Cc1cc(C(=O)N/N=C/c2ccc(-c3cccc(Cl)c3Cl)o2)n[nH]1	inconclusive: 35.5 µM [inhibitor, single point]	–
COc1ccc(NC(=S)NCCc2c[nH]c3ccc(OC)cc23)c(OC)c1	active: 14.1 µM	–
COc1cc2c(cc1OC)C1O[C@](c3ccsc3)(C2)OC2=C1C(=O)CC(C)(C)C2	–	inactive: 15% [at 10 µM]
COc1ccc(C(=O)CC(=O)C(=O)Nc2ccc(C)c(C)c2)cc1	active: 12.6 µM	–
Fc1ccc(Nc2nc(N3CCOCC3)c3ccccc3n2)cc1	inactive	–
CCCN1C(=O)/C(=C/c2ccc(OCC(=O)OCC)cc2)NC1=S	inconclusive: 25.1 µM [inhibitor, single point]	–
CCNC(=S)SCCOc1ccccc1C	inconclusive: 35.5 µM [inhibitor, single point]	–
O=[N+]([O-])c1ccc2nc(N3CCCC3)sc2c1	inactive	–
CNC(=O)c1cc(C(=O)c2ccc(C(F)(F)F)cc2)c[nH]1	inactive	–
S=C(Nc1ccc(Br)cc1)NC1CCCCC1	active: 7.94 µM	–

SMILES	Potency	activity change, negative = inhibition
COC(=O)CC1C(=O)NCCN1C(=S)NC(=O)C(c1ccccc1)c1ccccc1 (stereo not drawn)	active: 10 µM	–
CC(C)c1ccc(NC(=O)c2snc3ccc(Cl)cc23)cc1	inconclusive: 12.6 µM [activator, partial curve]	–
Nc1nonc1-c1nc2ccccc2n1CC(=O)NC1CCCC1	inactive	–
CN(C)c1ccc(/C=N\NC(=S)SCN2C(=O)C3CCC(C)(C2=O)C3(C)C)cc1 (stereo not drawn)	active: 0.316 µM	–
COC(=O)[C@@H](NC(=O)c1ccccc1OC1CCN(S(C)(=O)=O)CC1)C(C)C	inconclusive: 12.6 µM [activator, single point]	–
O=C(Nc1ccc(F)cc1)NC1CCCCCCC1	inconclusive: 5.62 µM [activator, partial curve, poor fit]	–
CCOc1ccc(N2C(=O)S/C(=C\c3ccc(O)c(OCC)c3)C2=O)cc1	inactive	–
Cc1ccc(C)c(-n2nnnc2Sc2nnnn2-c2ccccc2)c1	inconclusive: 35.5 µM [inhibitor, single point]	–
Cc1cccc(OCc2ccc(C(=O)Nc3ccc(F)cc3)cc2)c1	inactive	–
Cc1ccc2c(C)c(C(=O)Nc3cccnc3)oc2c1	inconclusive: 3.16 µM [activator, partial curve]	–
CCOC(=O)CNC(=O)CSc1nnc(-c2ccccc2)n1Cc1ccco1	inconclusive: 7.08 µM [inhibitor, partial curve]	–
CC(=O)C(=Nc1ccccc1Cl)NNc1ccc(Cl)cc1	inconclusive: 0.355 µM [inhibitor, full curve, poor fit]	–
CCCc1cc(=O)n2nc(N3CCC(C(=O)N4CCN(c5ccc(OC)cc5)CC4)CC3)sc2n1	inconclusive: 20 µM [activator, single point]	–
Cc1cc(N/C=C\c2nnnn2-c2ccccc2)no1	inconclusive: 14.1 µM [activator, partial curve]	–
CCNC(=S)N/N=C/c1cc(C)n(-c2ccc(Cl)cc2)c1C	active: 1.41 µM	–
Cc1cc(C)n(C(=O)/C(C#N)=N/Nc2cc(Cl)cc(Cl)c2)n1	inconclusive: 35.5 µM [inhibitor, single point]	–
CCN(CC)c1ccc(NC(=O)C2=CCN(S(=O)(=O)c3ccc(F)cc3)CC2)c(C)c1	inconclusive: 35.5 µM [activator, single point]	–
[O-]/[N+](=C\c1ccccc1)[C@@H]1CCCC[C@@H]1/[N+]([O-])=C/c1ccccc1	inconclusive: 6.31 µM [inhibitor, single point]	–
CCCCn1c(N)c(N(Cc2ccccc2OC)C(=O)C(C)Oc2ccc(Cl)cc2)c(=O)[nH]c1=O (stereo not drawn)	inactive	–
O=C(COC(=O)C1COc2ccccc2O1)NC(=O)Nc1ccc2c(c1)OCCO2 (stereo not drawn)	inconclusive: 12.6 µM [activator, single point]	–
Cc1nn(CCCC(=O)Nc2cc(Oc3ccccc3)cc([N+](=O)[O-])c2)c(C)c1[N+](=O)[O-]	active: 2 µM	–
CN1C(=O)Cc2cc(S(=O)(=O)Nc3ccc(Cl)cc3)ccc21	inconclusive: 10 µM [activator, partial curve]	–
O=C(O)COc1ccccc1C(Nc1ccccn1)c1cc(Cl)c2cccnc2c1O (stereo not drawn)	inconclusive: 11.2 µM [inhibitor, single point]	–
CC1=CC(C)=Nc2ccc(C)cc2N1	inconclusive: 1.78 µM [activator, single point]	–
C/C(N)=C(/C#N)C(=O)CSc1nnc(SCc2ccc(Cl)cc2)s1	inactive	–

Record cards, as listed above:
CCNC(=S)N/N=C/c1cc(C)n(-c2ccc(Cl)cc2)c1C in the list: Potency: active: 1.41 µM
CC1=CC(C)=Nc2ccc(C)cc2N1 in the list: Potency: inconclusive: 1.78 µM [activator, single point]

4 consecutive records already listed, for reference:
SMILES	Potency	activity change, negative = inhibition
O=C(COC(=O)C1COc2ccccc2O1)NC(=O)Nc1ccc2c(c1)OCCO2 (stereo not drawn)	inconclusive: 12.6 µM [activator, single point]	–
Cc1nn(CCCC(=O)Nc2cc(Oc3ccccc3)cc([N+](=O)[O-])c2)c(C)c1[N+](=O)[O-]	active: 2 µM	–
CN1C(=O)Cc2cc(S(=O)(=O)Nc3ccc(Cl)cc3)ccc21	inconclusive: 10 µM [activator, partial curve]	–
O=C(O)COc1ccccc1C(Nc1ccccn1)c1cc(Cl)c2cccnc2c1O (stereo not drawn)	inconclusive: 11.2 µM [inhibitor, single point]	–

More entries

SMILES	Potency	activity change, negative = inhibition
COc1ccc2[nH]cc(CCNc3nc(-c4ccc(C(=O)N(C)C)cc4)nc4ccccc34)c2c1	inconclusive: 14.1 µM [activator, single point]	–
COc1cc(C2C=C(Nc3ccccc3)C(=O)N2c2ccccc2)ccc1O (stereo not drawn)	inactive	–
c1ccc(-c2nccc(-c3ccc(-n4cnc5ccccc54)cc3)n2)nc1	inconclusive: 11.2 µM [inhibitor, partial curve]	–
COC(/C(=N/O)c1ccc(Cl)cc1)c1ccccc1 (stereo not drawn)	active: 5.62 µM	–
CSc1ccccc1NC(=S)NC1CCCCC1	active: 3.55 µM	–
COc1ccc(N2C(=O)C3C(C2=O)C(C(=O)c2ccc(Cl)cc2)N2CCCC32)cc1 (stereo not drawn)	inconclusive: 10 µM [inhibitor, partial curve, poor fit]	–
Cc1nc(NNC(=O)c2ccc([N+](=O)[O-])cc2)cc(-c2ccccc2)n1	active: 2.24 µM	–
Nc1nc(-c2cc(O)ccc2[N+](=O)[O-])cc(-c2ccccc2)c1[N+](=O)[O-]	inconclusive: 15.8 µM [inhibitor, single point]	–
CC1CCN(C(=O)c2ccc(NS(=O)(=O)c3cccc4cccnc34)cc2)CC1	inactive	–
O=C(O)c1ccc(Cl)c(S(=O)(=O)Nc2ccc3cn[nH]c3c2)c1	inconclusive: 0.355 µM [activator, partial curve, poor fit]	–
CC1CCC(NC(=O)Nc2cccs2)CC1 (stereo not drawn)	inconclusive: 10 µM [activator, partial curve, poor fit]	–
CCOC(=O)c1ccc(N2C(=O)CC(N3CCC(O)(c4ccc(Cl)cc4)CC3)C2=O)cc1 (stereo not drawn)	inactive	–
O=C(NC(=S)Nc1cccc(NC(=O)c2ccccc2Cl)c1)c1cccs1	active: 11.2 µM	–
c1ccc(-c2noc(-c3cccs3)n2)nc1	active: 1.26 µM	–
COc1ccc(-n2c(=O)/c(=C\c3cccs3)s/c2=C(/C#N)C(=O)N2CCN(C)CC2)cc1	inconclusive: 2.24 µM [inhibitor, partial curve]	–
Nc1cccc(-c2nc3cc(S(=O)(=O)c4ccc5oc(-c6cccc(N)c6)nc5c4)ccc3o2)c1	active: 4.47 µM	–
COc1cc(/C=C2/NC(=O)NC2=O)cc(Br)c1OCc1ccc(C(=O)O)cc1	inactive	–
CC(C)(C)Nc1nc(Cl)nc(N(C#N)CN2C(=O)c3ccccc3S2(=O)=O)n1	inactive	–
COc1ccc2cc(C(=O)/C=C/c3cc(OC)c(O)c(OC)c3)ccc2c1	inconclusive: 17.8 µM [inhibitor, single point]	–
COc1ccc2c(c1)c(CC(=O)N1CCOCC1)c(C)n2C(=O)c1ccc(Cl)cc1	inconclusive: 28.2 µM [activator, partial curve, poor fit]	–
CCC(CC)C(=O)Nc1nnc(SCC(=O)N2CCN(c3ccccc3OC)CC2)s1	inactive	–
O=C(NNc1ncnc2sccc12)c1ccc(Cl)cc1	inconclusive: 17.8 µM [inhibitor, partial curve, poor fit]	–
Cc1ccc(/C=N/NC(=O)CSc2nc3ccccc3c(=O)n2-c2ccccc2)s1	inconclusive: 5.01 µM [inhibitor, single point]	–
